This note sets out measurements from patent US20210260009A1, “METHODS AND COMPOSITIONS FOR THE TREATMENT OF A RENAL DISEASE” (priority 2020, published 2021).

Sequences and labels used below:
B1: sp|P14407|FUMB_ECOLI;sp|P0AC33|FUMA_ECOLI (protein, UniProt P14407 1-548; P0AC33 2-548, looked up)
Fumarate hydratase class I, … 1: MSNKPFIYQAPFPMGKDNTEYYLLTSDYVSVADFDGETILKVEPEALTLLAQQAFHDASFMLRPAHQKQVAAILHDPEASENDKYVALQFLRNSEIAAKGVLPTCQDTGTAIIVGKKGQRVWTGGGDEETLSKGVYNTYIEDNLRYSQNAALDMYKEVNTGTNLPAQIDLYAVDGDEYKFLCVAKGGGSANKTYLYQETKALLTPGKLKNFLVEKMRTLGTAACPPYHIAFVIGGTSAETNLKTVKLASAHYYDELPTEGNEHGQAFRDVQLEQELLEEAQKLGLGAQFGGKYFAHDIRVIRLPRHGASCPVGMGVSCSADRNIKAKINREGIWIEKLEHNPGQYIPQELRQAGEGEAVKVDLNRPMKEILAQLSQYPVSTRLSLTGTIIVGRDIAHAKLKELIDAGKELPQYIKDHPIYYAGPAKTPAGYPSGSLGPTTAGRMDSYVDLLQSHGGSMIMLAKGNRSQQVTDACHKHGGFYLGSIGGPAAVLAQQSIKHLECVAYPELGMEAIWKIEVEDFPAFILVDDKGNDFFQQIVNKQCANCTK
Fumarate hydratase class I, … 2: SNKPFHYQAPFPLKKDDTEYYLLTSEHVSVSEFEGQEILKVAPEALTLLARQAFHDASFMLRPAHQQQVADILRDPEASENDKYVALQFLRNSDIAAKGVLPTCQDTGTAIIVGKKGQRVWTGGGDEAALARGVYNTYIEDNLRYSQNAPLDMYKEVNTGTNLPAQIDLYAVDGDEYKFLCIAKGGGSANKTYLYQETKALLTPGKLKNYLVEKMRTLGTAACPPYHIAFVIGGTSAETNLKTVKLASAKYYDELPTEGNEHGQAFRDVELEKELLIEAQNLGLGAQFGGKYFAHDIRVIRLPRHGASCPVGMGVSCSADRNIKAKINRQGIWIEKLEHNPGKYIPEELRKAGEGEAVRVDLNRPMKEILAQLSQYPVSTRLSLNGTIIVGRDIAHAKLKERMDNGEGLPQYIKDHPIYYAGPAKTPEGYASGSLGPTTAGRMDSYVDQLQAQGGSMIMLAKGNRSQQVTDACKKHGGFYLGSIGGPAAVLAQGSIKSLECVEYPELGMEAIWKIEVEDFPAFILVDDKGNDFFQQIQLTQCTRCVK
B2: sp|P0ADE8|YGFZ_ECOLI (protein, UniProt P0ADE8 2-326, looked up)
tRNA-modifying protein YgfZ: AFTPFPPRQPTASARLPLTLMTLDDWALATITGADSEKYMQGQVTADVSQMAEDQHLLAAHCDAKGKMWSNLRLFRDGDGFAWIERRSVREPQLTELKKYAVFSKVTIAPDDERVLLGVAGFQARAALANLFSELPSKEKQVVKEGATTLLWFEHPAERFLIVTDEATANMLTDKLRGEAELNNSQQWLALNIEAGFPVIDAANSGQFIPQATNLQALGGISFKKGCYTGQEMVARAKFRGANKRALWLLAGSASRLPEAGEDLELKMGENWRRTGTVLAAVKLEDGQVVVQVVMNNDMEPDSIFRVRDDANTLHIEPLPYSLEE
B3: sp|P00957|SYA_ECOLI (protein, UniProt P00957 2-876, looked up)
Alanine--tRNA ligase: SKSTAEIRQAFLDFFHSKGHQVVASSSLVPHNDPTLLFTNAGMNQFKDVFLGLDKRNYSRATTSQRCVRAGGKHNDLENVGYTARHHTFFEMLGNFSFGDYFKHDAIQFAWELLTSEKWFALPKERLWVTVYESDDEAYEIWEKEVGIPRERIIRIGDNKGAPYASDNFWQMGDTGPCGPCTEIFYDHGDHIWGGPPGSPEEDGDRYIEIWNIVFMQFNRQADGTMEPLPKPSVDTGMGLERIAAVLQHVNSNYDIDLFRTLIQAVAKVTGATDLSNKSLRVIADHIRSCAFLIADGVMPSNENRGYVLRRIIRRAVRHGNMLGAKETFFYKLVGPLIDVMGSAGEDLKRQQAQVEQVLKTEEEQFARTLERGLALLDEELAKLSGDTLDGETAFRLYDTYGFPVDLTADVCRERNIKVDEAGFEAAMEEQRRRAREASGFGADYNAMIRVDSASEFKGYDHLELNGKVTALFVDGKAVDAINAGQEAVVVLDQTPFYAESGGQVGDKGELKGANFSFAVEDTQKYGQAIGHIGKLAAGSLKVGDAVQADVDEARRARIRLNHSATHLMHAALRQVLGTHVSQKGSLVNDKVLRFDFSHNEAMKPEEIRAVEDLVNTQIRRNLPIETNIMDLEAAKAKGAMALFGEKYDERVRVLSMGDFSTELCGGTHASRTGDIGLFRIISESGTAAGVRRIEAVTGEGAIATVHADSDRLSEVAHLLKGDSNNLADKVRSVLERTRQLEKELQQLKEQAAAQESANLSSKAIDVNGVKLLVSELSGVEPKMLRTMVDDLKNQLGSTIIVLATVVEGKVSLIAGVSKDVTDRVKAGELIGMVAQQVGGKGGGRPDMAQAGGTDAAALPAALASVKGWVSAKLQ
B4: sp|P33602|NUOG_ECOLI (protein, UniProt P33602 2-908, looked up)
NADH-quinone oxidoreductase …: ATIHVDGKEYEVNGADNLLEACLSLGLDIPYFCWHPALGSVGACRQCAVKQYQNAEDTRGRLVMSCMTPASDGTFISIDDEEAKQFRESVVEWLMTNHPHDCPVCEEGGNCHLQDMTVMTGHSFRRYRFTKRTHRNQDLGPFISHEMNRCIACYRCVRYYKDYADGTDLGVYGAHDNVYFGRPEDGTLESEFSGNLVEICPTGVFTDKTHSERYNRKWDMQFAPSICQQCSIGCNISPGERYGELRRIENRYNGTVNHYFLCDRGRFGYGYVNLKDRPRQPVQRRGDDFITLNAEQAMQGAADILRQSKKVIGIGSPRASVESNFALRELVGEENFYTGIAHGEQERLQLALKVLREGGIYTPALREIESYDAVLVLGEDVTQTGARVALAVRQAVKGKAREMAAAQKVADWQIAAILNIGQRAKHPLFVTNVDDTRLDDIAAWTYRAPVEDQARLGFAIAHALDNSAPAVDGIEPELQSKIDVIVQALAGAKKPLIISGTNAGSLEVIQAAANVAKALKGRGADVGITMIARSVNSMGLGIMGGGSLEEALTELETGRADAVVVLENDLHRHASAIRVNAALAKAPLVMVVDHQRTAIMENAHLVLSAASFAESDGTVINNEGRAQRFFQVYDPAYYDSKTVMLESWRWLHSLHSTLLSREVDWTQLDHVIDAVVAKIPELAGIKDAAPDATFRIRGQKLAREPHRYSGRTAMRANISVHEPRQPQDIDTMFTFSMEGNNQPTAHRSQVPFAWAPGWNSPQAWNKFQDEVGGKLRFGDPGVRLFETSENGLDYFTSVPARFQPQDGKWRIAPYYHLFGSDELSQRAPVFQSRMPQPYIKLNPADAAKLGVNAGTRVSFSYDGNTVTLPVEIAEGLTAGQVGLPMGMSGIAPVLAGAHLEDLKEAQQ
B5: sp|P0A6V8|GLK_ECOLI (protein, UniProt P0A6V8 1-321, looked up)
Glucokinase: MTKYALVGDVGGTNARLALCDIASGEISQAKTYSGLDYPSLEAVIRVYLEEHKVEVKDGCIAIACPITGDWVAMTNHTWAFSIAEMKKNLGFSHLEIINDFTAVSMAIPMLKKEHLIQFGGAEPVEGKPIAVYGAGTGLGVAHLVHVDKRWVSLPGEGGHVDFAPNSEEEAIILEILRAEIGHVSAERVLSGPGLVNLYRAIVKADNRLPENLKPKDITERALADSCTDCRRALSLFCVIMGRFGGNLALNLGTFGGVFIAGGIVPRFLEFFKASGFRAAFEDKGRFKEYVHDIPVYLIVHDNPGLLGSGAHLRQTLGHIL
B6: sp|P0ABH7|CISY_ECOLI (protein, UniProt P0ABH7 1-427, looked up)
Citrate synthase: MADTKAKLTLNGDTAVELDVLKGTLGQDVIDIRTLGSKGVFTFDPGFTSTASCESKITFIDGDEGILLHRGFPIDQLATDSNYLEVCYILLNGEKPTQEQYDEFKTTVTRHTMIHEQITRLFHAFRRDSHPMAVMCGITGALAAFYHDSLDVNNPRHREIAAFRLLSKMPTMAAMCYKYSIGQPFVYPRNDLSYAGNFLNMMFSTPCEPYEVNPILERAMDRILILHADHEQNASTSTVRTAGSSGANPFACIAAGIASLWGPAHGGANEAALKMLEEISSVKHIPEFVRRAKDKNDSFRLMGFGHRVYKNYDPRATVMRETCHEVLKELGTKDDLLEVAMELENIALNDPYFIEKKLYPNVDFYSGIILKAMGIPSSMFTVIFAMARTVGWIAHWSEMHSDGMKIARPRQLYTGYEKRDFKSDIKR
B7: sp|P0A6N4|EFP_ECOLI (protein, UniProt P0A6N4 2-188, looked up)
Elongation factor P: ATYYSNDFRAGLKIMLDGEPYAVEASEFVKPGKGQAFARVKLRRLLTGTRVEKTFKSTDSAEGADVVDMNLTYLYNDGEFWHFMNNETFEQLSADAKAIGDNAKWLLDQAECIVTLWNGQPISVTPPNFVELEIVDTDPGLKGDTAGTGGKPATLSTGAVVKVPLFVQIGEVIKVDTRSGEYVSRVK
B8: sp|P0ACY1|YDJA_ECOLI (protein, UniProt P0ACY1 1-183, looked up)
Putative NAD(P)H …: MDALELLINRRSASRLAEPAPTGEQLQNILRAGMRAPDHKSMQPWHFFVIEGEGRERFSAVLEQGAIAAGSDDKAIDKARNAPFRAPLIITVVAKCEENHKVPRWEQEMSAGCAVMAMQMAAVAQGFGGIWRSGALTESPVVREAFGCREQDKIVGFLYLGTPQLKASTSINVPDPTPFVTYF
B9: sp|P63177|RLMB_ECOLI (protein, UniProt P63177 1-243, looked up)
23S rRNA …: MSEMIYGIHAVQALLERAPERFQEVFILKGREDKRLLPLIHALESQGVVIQLANRQYLDEKSDGAVHQGIIARVKPGRQYQENDLPDLIASLDQPFLLILDGVTDPHNLGACLRSADAAGVHAVIVPKDRSAQLNATAKKVACGAAESVPLIRVTNLARTMRMLQEENIWIVGTAGEADHTLYQSKMTGRLALVMGAEGEGMRRLTREHCDELISIPMAGSVSSLNVSVATGICLFEAVRQRS
B10: sp|P777187|THII_ECOLI (protein, UniProt P77718 1-482, looked up)
tRNA sulfurtransferase: MKFIIKLFPEITIKSQSVRLRFIKILTGNIRNVLKHYDETLAVVRHWDNIEVRAKDENQRLAIRDALTRIPGIHHILEVEDVPFTDMHDIFEKALVQYRDQLEGKTFCVRVKRRGKHDFSSIDVERYVGGGLNQHIESARVKLTNPDVTVHLEVEDDRLLLIKGRYEGIGGFPIGTQEDVLSLISGGFDSGVSSYMLMRRGCRVHYCFFNLGGAAHEIGVRQVAHYLWNRFGSSHRVRFVAINFEPVVGEILEKIDDGQMGVILKRMMVRAASKVAERYGVQALVTGEALGQVSSQTLTNLRLIDNVSDTLILRPLISYDKEHIINLARQIGTEDFARTMPEYCGVISKSPTVKAVKSKIEAEEEKFDFSILDKVVEEANNVDIREIAQQTEQEVVEVETVNGFGPNDVILDIRSIDEQEDKPLKVEGIDVVSLPFYKLSTKFGDLDQNKTWLLWCERGVMSRLQALYLREQGFNNVKVYRP

The test system of one data set is E. coli K-12 proteome. As to conditions: S-sulfhydrated protein pull-down, TMT LC-MS3; ΔdecR E. coli lysate.
B1 yielded a ΔdecR of 1.14. On the same count and under the same terms, in the case of B2 it was 1.43; in that of B3, 1.25. The same measure, in the same setting: the same measure for B4: 1.29.

The data set is the same for the next values; noted with them: TMT LC-MS3 abundance in pull-down fraction; ΔdecR E. coli lysate.
B5 had a ΔdecR of 1.15. B6 displayed a ΔdecR of 1.76. On the same count and under the same terms, the same measure for B7: 0.69; for B8: 1.06; for B9: 1.39. Still for that read-out and setting: the same measure for B10: 0.96.
